PubChem BioAssay AID1259405, NCATS – 2018
Purpose: 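Knock-downs that lift recombinant protein yield in hamster ovary cells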 (primary screen). Cell system: Chinese hamster CHO-K1 ovary cells with stable secreted eGFP expression. Knock-down reagent: single siRNA against mouse genes, 0.8 pmol siRNA per well (2 µl of 400 nM stock). Timing: 3 days. Detection: 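Percent of the per-plate non-targeting control median for intracellular GFP per well by laser scanning cytometry and for cell viability by ATP luminescence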. Direction: GFP, % of control: higher = more GFP per well, higher productivity; viability (ATP), % of control: higher = more viable cells (more ATP). Active means: 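a knock-down is called active if GFP reaches 120% or more of non-targeting control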.
The whole screen tested about 50,000 reagents; shown is a random part of them. About 4,000 of them (8%) count as active. 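Mouse siRNA library applied to hamster cells; one well for each siRNA.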 The numbers tell different reagents against one gene apart.

GFP, % of control	viability (ATP), % of control	outcome	Target gene	siRNA no.
44.6	61.1	inactive	Ugt2b37	1
93.3	84.7	inactive	Ugt2b37	2
35.9	41.5	inactive	Ugt2b37	3
79.1	66.9	inactive	Or9s14	1
83.2	74	inactive	Or9s14	2
88.8	91.4	inactive	Or9s14	3
140	67.7	active	Slc35e4	1
71.7	81.4	inactive	Slc35e4	2
93.9	104	inactive	Slc35e4	3
150	99	active	Id4	1
85.5	67.2	inactive	Id4	2
105	98.9	inactive	Id4	3
89.1	92	inactive	Vps4a	1
59.9	79.8	inactive	Vps4a	2
40.1	58.4	inactive	Vps4a	3
111	121	inactive	Mmp11	1
83.2	105	inactive	Mmp11	2

Hits, among the entries above:
GFP, % of control	viability (ATP), % of control	outcome	Target gene	siRNA no.
140	67.7	active	Slc35e4	1
150	99	active	Id4	1

The results go on:
GFP, % of control	viability (ATP), % of control	outcome	Target gene	siRNA no.
63.3	53.8	inactive	Map1s	1
75.1	70.8	inactive	Map1s	2
103	72.8	inactive	Map1s	3
34.6	44.3	inactive	Nr4a3	1
79.1	59.3	inactive	Nr4a3	2
56.6	36.3	inactive	Nr4a3	3
166	115	active	Nek5	1
41.6	48.3	inactive	Nek5	2
101	80.8	inactive	Nek5	3
65.9	47.2	inactive	Lins1	1
78.4	81.8	inactive	Lins1	2
108	88.8	inactive	Lins1	3
51.8	70.9	inactive	Ro60	1
93.8	108	inactive	Ro60	2
86.3	74.4	inactive	Ro60	3
75.4	80.1	inactive	Gpc4	1
57	33.3	inactive	Gpc4	2
57.6	55.2	inactive	Gpc4	3
